Results as given in US20250129145A1 (Ablynx, published 2025).
These are yes or no findings as the source states them, for the method shown. Some results given as binding are weak or reduced against the parent protein; the word gives no strength.

The chains behind the UniProt entries cited, without tags or fusion partners. Residues count along the entry.
UniProt P02768, residues 25-609: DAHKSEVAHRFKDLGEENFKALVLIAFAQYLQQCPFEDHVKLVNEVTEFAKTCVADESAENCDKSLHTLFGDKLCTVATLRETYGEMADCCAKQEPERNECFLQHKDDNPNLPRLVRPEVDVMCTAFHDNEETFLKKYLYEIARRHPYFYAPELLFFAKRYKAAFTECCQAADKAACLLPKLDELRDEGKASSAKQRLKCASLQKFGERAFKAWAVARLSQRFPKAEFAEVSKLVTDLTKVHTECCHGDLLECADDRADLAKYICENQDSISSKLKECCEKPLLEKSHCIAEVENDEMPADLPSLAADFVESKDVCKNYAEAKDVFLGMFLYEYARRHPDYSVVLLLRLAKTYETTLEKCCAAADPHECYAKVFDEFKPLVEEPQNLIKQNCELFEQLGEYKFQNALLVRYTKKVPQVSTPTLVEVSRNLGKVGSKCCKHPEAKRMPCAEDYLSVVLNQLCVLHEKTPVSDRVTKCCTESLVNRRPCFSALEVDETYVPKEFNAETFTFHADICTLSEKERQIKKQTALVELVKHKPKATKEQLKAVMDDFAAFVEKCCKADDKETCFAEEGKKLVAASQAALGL

B1: T026301360 (VHH, not shown: large carriers; small tags and cut ends)
chain: EVQLVESGGGVVQPGGSLRLSCAASGFTFRSFGMSWVRQAPGKGPEWVSSISGSGSDTLYADSVKGRFTISRDNSKNTLYLQMNSLRPEDTALYYCTIGGSLSRSSQGTLVTVSSGGGGSGGGSEVQLVESGGGVVQPGGSLRLSCAASGFTFRSFGMSWVRQAPGKGPEWVSSISGSGSDTLYADSVKGRFTISRDNSKNTLYLQMNSLRPEDTALYYCTIGGSLSRSSQGTLVTVSSA
notes: Tetravalent ISVD fusion protein made in P. pastoris; X and Y are undisclosed target ISVDs; also called X-9GS-Y-9GS-ALB23002-9GS-Alb223; X-Y-Alb23002-Alb223
B2: T026301365 (VHH, not shown: large carriers; small tags and cut ends)
chain: EVQLVESGGGVVQPGGSLRLSCAASGFTFRSFGMSWVRQAPGKGPEWVSSISGSGSDTLYADSVKGRFTISRDNSKNTLYLQMNSLRPEDTALYYCTIGGSLSRSSQGTLVTVSSGGGGSGGGGSGGGGSGGGGSGGGGSGGGGSGGGGSEVQLVESGGGVVQPGGSLRLSCAASGFTFRSFGMSWVRQAPGKGPEWVSSISGSGSDTLYADSVKGRFTISRDNSKNTLYLQMNSLRPEDTALYYCTIGGSLSRSSQGTLVTVSSA
notes: Tetravalent ISVD fusion protein made in P. pastoris; X and Y are undisclosed target ISVDs; also called X-9GS-Y-9GS-ALB23002-35GS-Alb223
B3: T026301370 (VHH, not shown: large carriers; small tags and cut ends)
chain: EVQLVESGGGVVQPGGSLRLSCAASGFTFRSFGMSWVRQAPGKGPEWVSSISGSGSDTLYADSVKGRFTISRDNSKNTLYLQMNSLRPEDTALYYCTIGGSLSRSSQGTLVTVSSGGGGSGGGGSGGGGSGGGGSEVQLVESGGGVVQPGGSLRLSCAASGFTFRSFGMSWVRQAPGKGPEWVSSISGSGSDTLYADSVKGRFTISRDNSKNTLYLQMNSLRPEDTALYYCTIGGSLSRSSQGTLVTVSSA

Molecular target: T1, human serum albumin (human, UniProt P02768 25-609)
T1 construct: Bought protein; also called HSA
Experiment: SPR Biacore 8K+, pH 7.4; construct captured on immobilized target X

B1 was tested. Which binding did it give?
The binding was “binds”.

For B2, which binding is on record?
Its binding is “binds”.

How did the binding turn out when B3 was run?
The binding was “binds”.
